# In PMC12691694, “Bacillus velezensis LoaP promotes antitermination by antagonizing NusA”:
# For at least one entry, the source does not settle the construct or the ends of the probe. A weaker result is weaker than the reference pair of the same experiment. At least one verdict was read from the data and is not stated in words by the source. Protein sequences can lack the tags named with them.
# Target: T1, LoaP (Bacillus velezensis) (UniProt A7Z6E4)
# T1 sequence (looked up, limits assumed): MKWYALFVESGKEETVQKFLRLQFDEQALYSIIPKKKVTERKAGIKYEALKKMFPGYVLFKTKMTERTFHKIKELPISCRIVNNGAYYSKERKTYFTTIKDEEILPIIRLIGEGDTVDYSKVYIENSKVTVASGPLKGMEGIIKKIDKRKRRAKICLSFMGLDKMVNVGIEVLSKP
# Assay: DRaCALA filter binding
# Details: 25 ug/mL yeast RNA, 1 mM Mg2+; 50 mM NaH2PO4 pH 7.2, 100 mM NaCl, 0.1 mM EDTA, 1 mM MgCl2, 100 ug/mL BSA, 25 ug/mL total yeast RNA, 2.5 nM labeled RNA, 45 min, room temperature; recombinant protein; protein details: N-terminal His10-SUMO removed by bdSENP1; label: 5'-32P
row,Sequence,binding result
1,GGAAACACAAUGCGUUUGCGAUUUUUAAACCUGUGCUGAAUCGCAAACGCGUUUGUG [dfnA terminator],binds more weakly
2,GGAAAGGCAAUCGCUGCUUCGGCACGUUGCC [dfn hairpin (Amr261)],binds

# Same assay, conditions: 50 mM NaH2PO4 pH 7.2, 100 mM NaCl, 0.1 mM EDTA, 1 mM MgCl2, 100 ug/mL BSA, 25 ug/mL total yeast RNA, 2.5 nM labeled RNA, 45 min, room temperature; recombinant protein; protein details: N-terminal His10-SUMO removed by bdSENP1; label: 5'-32P; single-stranded DNA
row,Sequence,binding result
1,AATAGCAACT [dfn segment 1 NT (MDJ652)],binds more weakly
2,AGTTGCTATT [dfn segment 1 T (MDJ657)],binds more weakly
3,ATTTAATAAA [dfn segment 3 T (MDJ659)],binds more weakly
4,ATTTGTTAAA [dfn segment 2 NT (MDJ653)],binds more weakly
5,CACCTATTAA [dfn segment 5 NT (MDJ656)],binds more weakly
6,CTTTACATCA [dfn segment 4 T (MDJ660)],binds more weakly
7,TGATGTAAAG [dfn segment 4 NT (MDJ655)],binds more weakly
8,TTAATAGGTG [dfn segment 5 T (MDJ661)],binds more weakly
9,TTTAACAAAT [dfn segment 2 T (MDJ658)],binds more weakly
10,TTTATTAAAT [dfn segment 3 NT (MDJ654)],binds more weakly
